This is an account of results in US9133224B2, “Macrocyclic kinase inhibitors” (OSI Pharmaceuticals, LLC, priority 2010, dated 2015).

Protein sequences, listed by entry. Tags and fused reporters are not part of them.
UniProt Q05397, whole entry: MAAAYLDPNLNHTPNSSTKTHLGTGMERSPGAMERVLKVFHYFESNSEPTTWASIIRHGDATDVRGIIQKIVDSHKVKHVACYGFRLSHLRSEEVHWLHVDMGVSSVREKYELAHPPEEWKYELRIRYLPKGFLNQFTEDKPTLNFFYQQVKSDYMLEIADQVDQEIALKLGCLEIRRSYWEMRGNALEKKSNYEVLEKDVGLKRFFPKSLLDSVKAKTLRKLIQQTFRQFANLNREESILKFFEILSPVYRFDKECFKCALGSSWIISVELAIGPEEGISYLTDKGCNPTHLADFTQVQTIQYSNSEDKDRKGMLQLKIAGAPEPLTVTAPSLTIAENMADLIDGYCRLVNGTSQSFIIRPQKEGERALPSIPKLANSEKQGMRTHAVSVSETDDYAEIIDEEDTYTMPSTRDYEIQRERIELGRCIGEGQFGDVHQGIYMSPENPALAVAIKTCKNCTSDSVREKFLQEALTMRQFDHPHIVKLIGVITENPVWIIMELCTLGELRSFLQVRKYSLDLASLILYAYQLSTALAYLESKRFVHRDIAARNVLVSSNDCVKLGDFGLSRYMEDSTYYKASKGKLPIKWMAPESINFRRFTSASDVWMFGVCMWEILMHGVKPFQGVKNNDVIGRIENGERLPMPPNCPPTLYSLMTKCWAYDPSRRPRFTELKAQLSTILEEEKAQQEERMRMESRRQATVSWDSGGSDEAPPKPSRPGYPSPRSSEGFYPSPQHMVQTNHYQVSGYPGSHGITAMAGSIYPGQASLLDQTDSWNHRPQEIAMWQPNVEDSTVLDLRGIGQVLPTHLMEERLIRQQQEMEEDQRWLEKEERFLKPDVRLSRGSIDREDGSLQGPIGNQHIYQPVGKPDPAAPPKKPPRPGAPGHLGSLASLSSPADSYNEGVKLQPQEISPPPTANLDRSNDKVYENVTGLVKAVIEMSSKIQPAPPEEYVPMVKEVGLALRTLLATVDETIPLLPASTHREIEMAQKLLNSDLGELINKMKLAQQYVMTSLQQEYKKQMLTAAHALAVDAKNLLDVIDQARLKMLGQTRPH

One test has as its target FAK (Homo sapiens, UniProt Q05397). Kind of test: Cell-based capture ELISA for inhibition of FAK autophosphorylation [pY397] in U87MG cells. For orientation: ELISA stands for enzyme-linked immunosorbent assay.
For test [1], the target named is GST-tagged full-length FAK enzyme (PTK2) (Homo sapiens, UniProt Q05397). Kind of test: Biochemical Omnia Assay (FAK). The note with it: read-out: FAK Activity Biochemical OMNIA, [ATP] = 50uM, mean IC50.
Setting [2] is: read-out: FAK Activity Mechanistic (U87MG) HP, 50% (v/v) human plasma, mean IC50.
[3] abbreviates: read-out: FAK Activity Mechanistic (U87MG) MP, 50% (v/v) mouse plasma, mean IC50.
Setting [4] is: read-out: FAK Activity Mechanistic (U87MG) NP, no plasma present, mean IC50.

Where two headings read alike, the source gives them in different places. Structures were worked out from names or drawings and are uncertain. Where only a bound is given, the exact number is not on record here.

`CCOP1(=O)Cc2ccc(c(OC)c2)Nc2ncc(C(F)(F)F)c(n2)Nc2ccc(nc2C(=O)NC)-c2cn(nc2C)CCCO1` (stereo not drawn): the IC50 (on FAK (setting [2]); at FAK (setting [3]); on FAK (setting [4]); in test [1]) was under 400 nM throughout.
As to `CCOP1(=O)Cc2ccc(c(OC)c2)Nc2ncc(C(F)(F)F)c(n2)Nc2ccc(nc2C(=O)NC)-c2cnn(c2)CC2(COC2)CO1` (stereo not drawn), the IC50 (at FAK (setting [2]); at FAK (setting [3]); on FAK (setting [4]); in test [1]) was under 400 nM in each case.
With `CCOP1(=O)Cc2ccc(c(OC)c2)Nc2ncc(C(F)(F)F)c(n2)Nc2ccc(nc2C(=O)NC)-c2cnn(c2)CCCO1` (stereo not drawn), the IC50 (on FAK (setting [2]); on FAK (setting [3]); at FAK (setting [4]); in test [1]) was under 400 nM each time.
Consider `CCOP1(=O)Cc2ccc(c(OC)c2Cl)Nc2ncc(C(F)(F)F)c(n2)Nc2ccc(nc2C(=O)NC)-c2cnn(c2)CCCO1` (stereo not drawn), for which the IC50 is 400 to 4000 nM at FAK (setting [2]), under 400 nM at FAK (setting [3]), under 400 nM at FAK (setting [4]) and under 400 nM in test [1].
Turning to `CCOP1(=O)Cc2ccc(cc2)Nc2ncc(C(F)(F)F)c(n2)Nc2ccc(nc2C(=O)NC)-c2cnn(c2)CC(C)CO1` (racemic), the IC50 (at FAK (setting [2]); at FAK (setting [3]); on FAK (setting [4]); in test [1]) was under 400 nM each time.
Take `CCOP1(=O)Cc2ccc(c(OC)c2)Nc2ncc(C(F)(F)F)c(n2)Nc2ccc(nc2C(=O)NC)-c2cnn(c2)CC(C)(C)CO1` (single isomer, unassigned): the IC50 (on FAK (setting [2]); on FAK (setting [3]); at FAK (setting [4]); in test [1]) was under 400 nM each time.
In the case of `CCOP1(=O)Cc2ccc(c(OC)c2Cl)Nc2ncc(C(F)(F)F)c(n2)Nc2ccc(nc2C(=O)NC)-c2cnn(c2)CC2(COC2)CO1` (single isomer, unassigned) [55A], the IC50 on FAK (setting [2]) is 400 to 4000 nM; on FAK (setting [3]), 400 to 4000 nM; on FAK (setting [4]), under 400 nM; in test [1] it was under 400 nM.
For the compound `CCCP1(=O)Cc2ccc(c(OC)c2)Nc2ncc(C(F)(F)F)c(n2)Nc2ccc(cc2C(=O)NC)-c2cnn(c2)CCCO1` (single isomer, unassigned) [66A], the IC50 at FAK (setting [2]) was 400 to 4000 nM; on FAK (setting [3]), 400 to 4000 nM; at FAK (setting [4]), under 400 nM; in test [1], under 400 nM.
Consider `CNC(=O)c1nc2ccc1Nc1nc(ncc1C(F)(F)F)Nc1ccc(cc1OC)CP(C)(=O)OCC(C)(C)Cn1cc-2cn1` (single isomer, unassigned) [Example 62], for which the IC50 (at FAK (setting [2]); on FAK (setting [3]); on FAK (setting [4]); in test [1]) was under 400 nM in each case.
